Test results published in paper PMC10767235.
These are yes or no findings as the source states them, for the method shown. Binding seen in cells or lysates may run through a third protein. Some binding calls cover weakened binding; strength is not graded here.

Sequences of proteins named here, by UniProt entry; tags and fusion partners are left off.
UniProt P35222: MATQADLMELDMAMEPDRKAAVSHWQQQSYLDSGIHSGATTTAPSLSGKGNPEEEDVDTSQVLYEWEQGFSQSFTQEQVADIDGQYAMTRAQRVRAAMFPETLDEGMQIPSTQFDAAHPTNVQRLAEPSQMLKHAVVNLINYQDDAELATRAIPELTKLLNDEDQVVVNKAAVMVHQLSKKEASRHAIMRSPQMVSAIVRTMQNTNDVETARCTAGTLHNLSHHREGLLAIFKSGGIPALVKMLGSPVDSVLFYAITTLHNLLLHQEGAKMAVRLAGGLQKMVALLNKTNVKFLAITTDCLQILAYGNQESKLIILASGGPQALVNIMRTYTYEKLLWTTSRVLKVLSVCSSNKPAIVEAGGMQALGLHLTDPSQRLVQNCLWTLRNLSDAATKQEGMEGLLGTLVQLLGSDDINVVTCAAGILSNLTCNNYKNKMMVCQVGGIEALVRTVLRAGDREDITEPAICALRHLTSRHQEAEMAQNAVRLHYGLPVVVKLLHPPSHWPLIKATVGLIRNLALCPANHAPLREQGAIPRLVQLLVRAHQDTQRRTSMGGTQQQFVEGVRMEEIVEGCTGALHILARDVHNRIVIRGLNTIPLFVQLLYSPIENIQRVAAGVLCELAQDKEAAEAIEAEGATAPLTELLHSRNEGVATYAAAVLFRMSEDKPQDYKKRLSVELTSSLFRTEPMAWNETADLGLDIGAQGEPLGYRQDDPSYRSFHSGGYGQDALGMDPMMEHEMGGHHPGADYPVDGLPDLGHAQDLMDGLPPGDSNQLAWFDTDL

Target: T1, peroxiredoxin 2 (human (endogenous in HepG2)) (UniProt P32119)
T1 sequence: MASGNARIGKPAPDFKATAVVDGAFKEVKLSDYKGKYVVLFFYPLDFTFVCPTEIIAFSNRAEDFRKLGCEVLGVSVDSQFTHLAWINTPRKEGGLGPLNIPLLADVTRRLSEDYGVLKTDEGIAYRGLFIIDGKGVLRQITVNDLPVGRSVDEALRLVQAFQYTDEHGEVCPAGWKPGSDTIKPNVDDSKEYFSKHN
Assay: co-IP; HepG2 cells lysed in RIPA buffer; supernatant incubated overnight at 4°C with 1 μg primary antibody and 20 μl protein A/G beads; Western blot; which antibody precipitated is not stated

binding: binds
Substance: β-catenin (from UniProt P35222 1-781)
